At least one compound was matched to its structure with a doubt left.
Experiments:
Bevacizumab [1] = target: T1, Bevacizumab (Homo sapiens, UniProt P01857); assay: Uptake kinetics by batch adsorption (time-scale of binding); settings: time after which 80% of equilibrium saturation occurred; 0.75 mg/ml Bevacizumab in PBS, 25° C.
T1 construct: 0.5 mg/ml IgG in PBS pH 7.3; ligand immobilized on SEPHAR; Bevacizumab Yield; other: mass eluted (glycine pH 2.5) / mass injected; kd (dissociation constant, Langmuir isotherm); other: Bevacizumab 0.05-5 mg/ml in PBS pH 7.3, 25° C., at least 3 h; qm (maximum capacity); other: mg Bevacizumab per ml of resin; Langmuir isotherm; t0; fused on or other part: Humanized anti-VEGF-A VH domain joined N-terminally to the IGHG1 constant region (engineered, no UniProt entry)
Protocol: Uptake kinetics was investigated similarly by batch adsorption in 96-well filter plates. Again, 10 μl of sorbent slurry (50% v/v) were mixed with 100 μl of protein solution. […] Reactions were agitated vigorously at 25° C. for up to 80 min. Supernatants were separated rapidly by spinning through filters after 2.5, 5, 10, 20, 40 and 80 minutes and sampled for analysis. Concentrations of the antibody were analyzed by Bradford assay.
For determination of t0.8, measured concentrations in the supernatant were interpolated by fitting of double-exponentials and values of t0.8 were read out from graphs (2).

Tocilizumab = assay: Microtiter plate chromatography of resins: binding and elution of Tocilizumab; settings: fraction of injected protein bound; 0.5 mg/ml IgG in PBS pH 7.3
Protocol: (§1) Resins were assessed in packed mode by microtiter plate chromatography. For each column, approximately 30 μl of resin were transferred to a 384-well filter plate and sealed with appropriate top fits. Columns with rProtein A SEPHAROSE 4 FF and MABSORBENT A2P HF were included as controls.
(§2) Either 3.3 cv of whole IgGs dissolved at 0.5 mg ml^−1 in PBS or undiluted host cell proteins (HCP) were injected onto columns.
(§3) Unbound protein was washed from columns with 5 cv of PBS prior to elution with 5 cv of glycine buffer at pH 2.5. […] During injection of samples, speed was reduced to 10 g and centrifugation time increased to 5-10 min. Effluent fractions were collected in 384-well plates and concentrations of protein were analyzed by Bradford assay. Protein masses mi, mft and me (see below) were calculated as the product of fraction volume and measured protein concentration.
(§4) The fraction of bound protein was calculated as the difference between the total mass of protein injected mi and the mass of protein detected in the flowthrough mft, divided by the total mass of protein injected.
(§5) The yield of protein was calculated as the mass of protein eluted me, divided by the mass of protein injected mi.
(§6) The fraction of bound protein and the yield of protein were calculated for each resin based on data for whole IgG-antibodies. In the case of host cell proteins, only the fraction of bound protein is given. […]

Palivizumab = assay: Microtiter plate chromatography of resins: binding and elution of Palivizumab; settings: fraction of injected protein bound; 0.5 mg/ml IgG in PBS pH 7.3
Protocol: as §1, §2, §3, §4, §5, §6

[2] = test system: poly-IgG from human serum (h-poly-IgG); assay: Microtiter plate chromatography of resins: binding and elution of human poly-IgG; settings: fraction of injected protein bound; 0.5 mg/ml IgG in PBS pH 7.3
Protocol: as §1, §2, §3, §4, §5, §6

Bevacizumab [3] = target: T1, Bevacizumab; assay: Langmuir isotherms by batch adsorption; format: binding; settings: mg Bevacizumab per ml of resin; Langmuir isotherm
Protocol: Experiments were performed with Bevacizumab as antibody. Parameters of Langmuir isotherms for purified antibody were determined by batch adsorption experiments in 96-well microtiter plates. In each well, 10 μl of sorbent slurry (50% v/v) were mixed with 100 μl of protein solution. Initial concentrations varied from 0.05-5 mg/ml in phosphate-buffered saline (0.15 M NaCl, 20 mM phosphate buffer, pH 7.3; PBS). Reactions were agitated vigorously at 25° C. for at least 3 h. Afterwards, antibody concentration in the supernatants were measured by Bradford assay. Data was evaluated by direct fitting of the values with the Langmuir isotherm equation (1).
Parameters of Langmuir isotherms, i.e. dissociation constants Kd and maximum capacities qm, were determined from the measured concentrations in the supernatants. Parameters were estimated by numerical fitting of the model equation derived by Chase (1)

host cell proteins (HCP) = assay: Microtiter plate chromatography of resins: binding of host cell proteins; set-up: species or system CHO cell culture; settings: fraction of injected undiluted host cell proteins bound
Protocol: Flowthrough from protein A chromatography (referred to as host cell proteins) was derived from the supernatant of antibody-producing CHO cell culture in serum-free medium. Coomassie brilliant blue dye reagent for Bradford assay was purchased from Thermo Scientific (Bonn/Germany).
as §1, §2
Unbound protein was washed from columns with 5 cv of PBS prior to elution with 5 cv of glycine buffer at pH 2.5. […] Effluent fractions were collected in 384-well plates and concentrations of protein were analyzed by Bradford assay. Protein masses mi, mft and me (see below) were calculated as the product of fraction volume and measured protein concentration.
as §4
The fraction of bound protein and the yield of protein were calculated for each resin based on data for whole IgG-antibodies. […]

Bevacizumab [4] = target: T1, Bevacizumab; assay: Microtiter plate chromatography of resins: binding and elution of Bevacizumab; settings: mass eluted (glycine pH 2.5) / mass injected
Protocol: as §1, §2, §3, §4, §5
The selectivity of resins was calculated as the fraction of bound Bevacizumab antibody BAb, divided by the fraction of bound host cell proteins BHCP. […]

Cetuximab = assay: Microtiter plate chromatography of resins: binding and elution of Cetuximab; settings: fraction of injected protein bound; 0.5 mg/ml IgG in PBS pH 7.3
Protocol: as §1, §2, §3, §4, §5, §6

With NCCCn1cc(-c2ccc(C(=O)Nc3nnc(-c4ccco4)s3)cc2)nn1 [Ligand L48] the “t0.8 (time-scale of binding)” value (Bevacizumab [1]) was 6.3 min, the “Tocilizumab Bound” value (Tocilizumab) was 100% and the “Palivizumab Bound” value (Palivizumab) was 95%. The “h-poly-IgG Bound” value [2] was 100%, the “qm (maximum capacity)” value (Bevacizumab [3]) was 37 mg/mL and the “HCP Bound” value (host cell proteins (HCP)) was 16.5%. For the same compound, the “Bevacizumab Yield” value (Bevacizumab [4]) was 100% and the “Cetuximab Bound” value (Cetuximab) was 100%.

Reference: patent US9745339B2 (GRAFFINITY PHARMACEUTICALS GMBH, priority 2012, dated 2017)
